Source: PubChem BioAssay AID1347076 (National Center for Advancing Translational Sciences (NCATS), 2019)
Out of some 400,000 compounds screened, about 13,000 (3.2%) were called active. Inconclusive means that the source gave no clear call. Such entries were picked first, then a sample of the others. The call rests on the fitted dose curve; in most records, active means well fitted cell-killing curve with a large enough effect; inconclusive means small, poorly fitted or top-dose-only effect, or effect the other way; inactive means flat fitted curve, though single readings scatter. Potencies of inconclusive entries are doubtful fits and often do not repeat.

Assay: qHTS assay for MDR1-selective chemotherapeutics: Primary screen using the drug-selected MDR subline cells KB-V1; further: nearly all actives have a fitted effect of over 60% in size
Details: KB-V1 MDR cells viability, CellTiter-Glo, 72 h; activity change, negative = cytotoxicity: at 46.1 µM (top of the series)
Summary of the method: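 KB-V1 MDR subline cells in DMEM (phenol-red free, 10% FBS) exposed to compounds in qHTS concentration series for 72 h at 37 degrees C. Viability read by CellTiter-Glo luminescence; concentration-effect curves fitted after normalization and correction.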
On the % scale 0 is the no-effect control and ±100 the full control effect; potency means the concentration at half of the fitted maximal effect.

| Compound | activity change, negative = cytotoxicity | Potency |
| --- | --- | --- |
| O=C(Nc1cccc([N+](=O)[O-])c1)c1ccncc1 | inactive: -10.2% | – |
| Cc1nn(CC(O)COc2ccc3c(c2)CCC3)c(C)c1Br (centres undefined) | – | inconclusive: 20.6 µM [cytotoxic, partial curve] |
| C[C@H]1[C@H](c2ccccc2)C[C@@H](C(=O)O)C1(C)C | – | inconclusive: 11.6 µM [rising, single point] |
| CCC(c1ccc(O)cc1)C(CC)c1ccc(O)cc1 (centres undefined) | – | inconclusive: 18.4 µM [cytotoxic, single point] |
| O=C(COc1ccc(Cl)cc1)Nc1cccc(-c2ccc(N3CCOCC3)nn2)c1 | – | inconclusive: 7.31 µM [cytotoxic, partial curve] |
| Cc1ccc(N2C(=O)C3CCC(C)(C2=O)C3(C)C)cc1C (centres undefined) | inactive: -17.9% | – |
| Cc1ccc(NC(=O)NNC(=O)C2CC(c3cccnc3)=NO2)cc1 (centres undefined) | inactive: -4.83% | – |
| COc1ccc(OCC(=O)Nc2ccc(Cl)c(-c3nc4ncccc4o3)c2)cc1 | inactive: -24.4% | – |
| O=C1CN(C(=O)COc2ccccc2)C(c2ccc(F)cc2)c2cc(Br)ccc2N1 (centres undefined) | – | inconclusive: 25.9 µM [cytotoxic, single point] |
| CCOC(=O)N1CCC(Nc2cc(C)nc3c(-c4ccccc4OC)c(C)nn23)CC1 | inactive: -16.5% | – |
| COc1ccc(-c2nn(-c3ccc(F)cc3)c3c2cnc2ccc(F)cc23)cc1OC | – | inconclusive: 16.4 µM [rising, single point] |
| Cc1cccc(N2CC(C(=O)Nc3nc4ccc(S(C)(=O)=O)cc4s3)CC2=O)c1C (centres undefined) | – | inconclusive: 16.4 µM [rising, partial curve, poor fit] |
| Cc1noc(/C=C/N(C)C)c1S(=O)(=O)N(C)Cc1ccc(F)cc1 | – | inconclusive: 20.6 µM [cytotoxic, partial curve, poor fit] |
| CCCc1nn2c(=O)cc(COC(=O)C3CCCCC3)nc2s1 | – | inconclusive: 29.1 µM [rising, single point] |
| CCC(C)c1ccc(O)c(NC(=S)NC(=O)c2cccs2)c1 (centres undefined) | – | inconclusive: 11.6 µM [cytotoxic, partial curve] |
| Cc1ccc(NC(=O)C(C)N2CCN(C)CC2)cc1S(=O)(=O)N1CCOCC1 (centres undefined) | – | inconclusive: 29.1 µM [rising, single point] |
| Cc1cnc(C(=O)OCC(=O)NC(C)CCc2ccccc2)cn1 (centres undefined) | – | inconclusive: 9.2 µM [rising, partial curve, poor fit] |
| COC(=O)c1ccc(C(NC(=O)c2cccnc2)NC(=O)c2cccnc2)cc1 | – | inconclusive: 29.1 µM [rising, single point] |
| O=C(C(c1ccccc1)c1ccccc1)N(Cc1ccco1)C1CCS(=O)(=O)C1 (centres undefined) | – | inconclusive: 9.2 µM [cytotoxic, partial curve] |
| COc1cccc(NC(=O)CSc2ccc(-c3sc(C)nc3C)nn2)c1 | – | inconclusive: 6.51 µM [cytotoxic, partial curve] |
| CCN(CC)CC(=O)Nc1sc(C)c(C)c1C(=O)c1ccc(C)cc1 | – | inconclusive: 1.64 µM [cytotoxic, full curve] |
| Cc1noc(C)c1NC(=O)N(C)C[C@H]1Oc2ccc(NC(=O)Nc3ccc(C(F)(F)F)cc3)cc2C(=O)N([C@H](C)CO)C[C@@H]1C | inactive: 0% | – |

A second format for some results above:
Compound	activity change, negative = cytotoxicity	Potency
CCOC(=O)N1CCC(Nc2cc(C)nc3c(-c4ccccc4OC)c(C)nn23)CC1	inactive: -16.5%	–
COc1ccc(-c2nn(-c3ccc(F)cc3)c3c2cnc2ccc(F)cc23)cc1OC	–	inconclusive: 16.4 µM [rising, single point]
Cc1cccc(N2CC(C(=O)Nc3nc4ccc(S(C)(=O)=O)cc4s3)CC2=O)c1C (centres undefined)	–	inconclusive: 16.4 µM [rising, partial curve, poor fit]

The list goes on.

| Compound | activity change, negative = cytotoxicity | Potency |
| --- | --- | --- |
| COc1ccc(CCN2CNc3c(c(=O)n(C)c(=O)n3C)C2)cc1 | inactive: -4.02% | – |
| CC(C)Oc1ccc(/C=C(/NC(=O)c2ccccc2)C(=O)NCCC(=O)O)cc1 | – | inconclusive: 14.6 µM [rising, partial curve] |
| COC(=O)c1ccc2c(=O)n(CCO)c(=S)[nH]c2c1 | – | inconclusive: 23.1 µM [cytotoxic, single point] |
| Cc1ccsc1/C=N/NC(=O)c1nnn(-c2nonc2N)c1CN(C)c1ccccc1 | inactive: 4.65% | – |
| COCCn1c(SCC(=O)c2c(C)[nH]c3ccccc23)nc2cc(C(=O)NC(C)C)ccc2c1=O | inactive: 4.06% | – |
| CCOC(=O)[C@H]1[C@H]2COc3ccc(C)cc3[C@@H]2N2C(=O)c3cc(Br)ccc3NC(=O)[C@@]12C | – | inconclusive: 18.4 µM [cytotoxic, single point] |
| CC(C)(C)C(=O)N1CCN(c2ccc([N+](=O)[O-])c(NCc3cccnc3)c2)CC1 | – | inconclusive: 23.1 µM [cytotoxic, single point] |
| O=C(Nc1ccccc1F)c1nc(SCc2ccccc2F)ncc1Cl | inactive: 0.0259% | – |
| CC1CN(C(=S)Nc2ccccc2C(F)(F)F)CC(C)O1 (centres undefined) | – | inconclusive: 29.1 µM [cytotoxic, single point] |
| Cc1ccc(Cl)cc1NC(=O)Nc1cn(CC(C)C)c(=O)c2ccccc12 | – | inconclusive: 29.1 µM [rising, single point] |
| CCN(CC)C(=O)CSc1nc(Cc2ccccc2)nc2ccccc12 | inactive: 1.7% | – |
| CC(C)c1cc(N=NC(N)=O)cc(C(C)C)c1O | inactive: -14.3% | – |
| CCn1nc(C)c(CN2CCCC(CO)(Cc3ccccc3)C2)c1C (centres undefined) | – | inconclusive: 9.2 µM [cytotoxic, partial curve, poor fit] |
| COc1ccccc1N1CCN(Cc2cc(Br)c(O)c3ncccc23)CC1 | – | inconclusive: 29.1 µM [cytotoxic, single point] |
| Clc1ccc(CSc2nccn2Cc2ccccc2)cc1 | – | inconclusive: 29.1 µM [cytotoxic, single point] |
| O=S(=O)(c1ccccc1Br)N1CCN(c2ncccn2)CC1 | – | inconclusive: 18.4 µM [cytotoxic, single point] |
| CN(C(=O)CSc1nnnn1C)C1(C#N)CCCCC1 | – | inconclusive: 25.9 µM [rising, single point] |
| CCN(CCCNC(=O)c1cc(Nc2ccc(OC)cc2)nc2ccccc12)c1cccc(C)c1 | inactive: 26.8% | – |
| Cc1cccc(OCC(=O)NCCCNC(=O)c2ccccn2)c1 | – | inconclusive: 14.6 µM [cytotoxic, single point] |
| CCC(C)NC(=O)Cn1nc(C(F)(F)F)c2c1CCC2 (centres undefined) | inactive: 4.8% | – |
| O=S(=O)(Nc1ccc(N2CCOCC2)cc1)c1c(F)cc(F)cc1Br | – | inconclusive: 29.1 µM [cytotoxic, single point] |
| O=C(Nc1ccc(F)cc1)c1ccc(CN2CCc3ccccc3C2)cc1 | – | active: 5.8 µM |
